Experimental data from patent US20220177583A1.
These are yes or no findings as the source states them, for the method shown. Some binding calls cover weakened binding; strength is not graded here. For some of these results: Where a sequence is shown, tags or fusion partners need not be part of it. Blank lines part the entries; values can stand above or below the binder they belong to.

The chains behind the UniProt entries cited, without tags or fusion partners. Where a name states a change or a piece, a line headed by the entry shows the natural chain unless it says otherwise.
UniProt P56747: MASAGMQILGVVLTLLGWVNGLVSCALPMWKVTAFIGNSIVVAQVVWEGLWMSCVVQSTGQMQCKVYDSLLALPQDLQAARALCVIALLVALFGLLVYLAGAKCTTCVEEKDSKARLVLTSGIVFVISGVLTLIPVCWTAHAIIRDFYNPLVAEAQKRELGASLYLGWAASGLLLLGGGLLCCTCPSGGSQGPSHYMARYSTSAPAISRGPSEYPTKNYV

Experiments:
[1] = target: human CLDN6, endogenously expressed on cancer cell lines (human) (UniProt P56747); assay: flow cytometry and cell staining, ARK2 cells
[2] = target: human CLDN6, endogenously expressed on cancer cell lines (human) (UniProt P56747); assay: flow cytometry, anti-HIS secondary, ARK2 cells
[3] = target: human CLDN6, endogenously expressed on cancer cell lines (human) (UniProt P56747); assay: flow cytometry on ARK2 cells, anti-HIS secondary antibody, FL4-H
[4] = target: human CLDN6, endogenously expressed on cancer cell lines (human) (UniProt P56747); assay: FACS binding assay, limiting dilution 0.32, 1.6, 8, 40, 200, 1000 nM, on OV90, ARK2 and UMUC4 cells
[5] = target: human CLDN6, endogenously expressed on cancer cell lines (human) (UniProt P56747); assay: FACS on OVCA429 cells, 1 wash after the primary, 0, 1 or 2 washes after the Dylight 649 secondary antibody
[6] = target: human CLDN6, endogenously expressed on cancer cell lines (human) (UniProt P56747); assay: FACS and immunostaining, OVCA429 cells
[7] = target: human CLDN6, endogenously expressed on cancer cell lines (human) (UniProt P56747); assay: FACS, OVCA429 cells, anti-human IgG (H+L) secondary
[8] = target: human CLDN6, endogenously expressed on cancer cell lines (human) (UniProt P56747); assay: FACS on OVCA429 cells, 1 wash after the Fab, 0, 1 or 2 washes after the Dylight 649 secondary antibody
[9] = target: human CLDN6, endogenously expressed on cancer cell lines (human) (UniProt P56747); assay: FACS on OVCA429 cells, no wash after the Fab, 0, 1 or 2 washes after the Dylight 649 secondary antibody
[10] = target: human CLDN6, endogenously expressed on cancer cell lines (human) (UniProt P56747); assay: FACS on OVCA429 cells, 2 washes after the Fab, 0, 1 or 2 washes after the Dylight 649 secondary antibody
[11] = target: human CLDN6, endogenously expressed on cancer cell lines (human) (UniProt P56747); assay: FACS, ARK2 cells
[12] = target: human CLDN6, endogenously expressed on cancer cell lines (human) (UniProt P56747); assay: FACS, 293T-CLDN6-GFP and ARK2 cells
[13] = target: human CLDN6, endogenously expressed on cancer cell lines (human) (UniProt P56747); assay: FACS on ARK2 cells, scFv followed by secondary antibody

binding [1]: binds
binding [2]: binds
binding [3]: binds
B1: TandAb-11 (CLDN6-binding moiety of AB1-11 fused to the CD16A-binding moiety) (bispecific antibody)
chain: QVQLVQSGAEVKKPGESLKVSCKASGYTFTSYYMHWVRQAPGQGLEWMGIINPSGGSTSYAQKFQGRVTMTRDTSTSTVYMELSSLRSEDTAVYYCARGSAYYYDFADYWGQGTLVTVSSGGSGGSGGSDIQLTQSPSSLSASVGDRVTMTCTASSSVSSTYFHWYQQKPGKAPKLWIYSTSNLASGVPSRFSGSGSGTDYTLTISSMQPEDAATYYCHQYHRSPLTFGQGTKLEIKGGSGGSGGSQVQLVQSGAEVKKPGASVKMSCKASGYTFTTYTMHWVRQAPGQGLEWIGFINPSSGYTDYAQKFQGRVTLTADKSTSTVYMELSSLRSEDTAVYYCANGDYYVAYWGQGTLVTVSSGGSGGSGGSSYVLTQPSSVSVAPGQTATISCGGHNIGSKNVHWYQQRPGQSPVLVIYQDNKRPSGIPERFSGSNSGNTATLTISGTQAMDEADYYCQVWDNYSVLFGGGTKLTVLHHHHHH

binding [4]: binds
binding [5]: binds
B2: AB1-11 (antibody, V domains shown)
VH: QVQLVQSGAEVKKPGASVKMSCKASGYTFTTYTMHWVRQAPGQGLEWIGFINPSSGYTDYAQKFQGRVTLTADKSTSTVYMELSSLRSEDTAVYYCANGDYYVAYWGQGTLVTVSS
VL: DIQLTQSPSSLSASVGDRVTMTCTASSSVSSTYFHWYQQKPGKAPKLWIYSTSNLASGVPSRFSGSGSGTDYTLTISSMQPEDAATYYCHQYHRSPLTFGQGTKLEIK

binding [6]: binds
binding [7]: binds
binding [8]: binds
binding [9]: binds
binding [10]: binds
B3: AB1-11 Fab (Fab, V domains shown)
VH: QVQLVQSGAEVKKPGASVKMSCKASGYTFTTYTMHWVRQAPGQGLEWIGFINPSSGYTDYAQKFQGRVTLTADKSTSTVYMELSSLRSEDTAVYYCANGDYYVAYWGQGTLVTVSS
VL: DIQLTQSPSSLSASVGDRVTMTCTASSSVSSTYFHWYQQKPGKAPKLWIYSTSNLASGVPSRFSGSGSGTDYTLTISSMQPEDAATYYCHQYHRSPLTFGQGTKLEIK

binding [1]: binds
binding [2]: binds
binding [3]: binds
B4: BiTE-11 (AB1-11 VL and VH fused with CD3E VH and VL) (bispecific antibody, V domains shown, not shown: small tags and cut ends)
VH: QVQLVQSGAEVKKPGASVKMSCKASGYTFTTYTMHWVRQAPGQGLEWIGFINPSSGYTDYAQKFQGRVTLTADKSTSTVYMELSSLRSEDTAVYYCANGDYYVAYWGQGTLVTVSS
VL: DIQLTQSPSSLSASVGDRVTMTCTASSSVSSTYFHWYQQKPGKAPKLWIYSTSNLASGVPSRFSGSGSGTDYTLTISSMQPEDAATYYCHQYHRSPLTFGQGTKLEIK

binding [11]: binds
binding [12]: binds
binding [13]: binds
B5: AB1-11 scFv (scFv)
scFv: DIQLTQSPSSLSASVGDRVTMTCTASSSVSSTYFHWYQQKPGKAPKLWIYSTSNLASGVPSRFSGSGSGTDYTLTISSMQPEDAATYYCHQYHRSPLTFGQGTKLEIKGGGGSGGGGSGGGGSQVQLVQSGAEVKKPGASVKMSCKASGYTFTTYTMHWVRQAPGQGLEWIGFINPSSGYTDYAQKFQGRVTLTADKSTSTVYMELSSLRSEDTAVYYCANGDYYVAYWGQGTLVTVSS
